Reference: patent publication US12344637B2, “Virus-inspired compositions and methods of redirecting preexisting immune responses using the same for treatment of cancer” (priority 2020, dated 2025)

Experiment: Percent peptide conjugation by SDS-PAGE densitometry
Details: 5:1 reducing agent to L1, 10:1 peptide to L1

B1: MPV.10.34.d capsid backbone (protein)
chain: MLYLPPTTPVAKVQSTDEYVYPTSLFCHAHTDRLLTVGHPFFSVIDNDKVTVPKVSGNQYRVFRLKFPDPNKFALPQKDFYDPEKERLVWRLRGLEIGRGGPLGIGTTGHPLFNKLGDTENPNKYQQGSKDNRQNTSMDPKQTQLFIVGCEPPTGEHWDVAKPCGALEKGDCPPIQLVNSVIEDGDMCDIGFGNMNFKELQQDRSGVPLDIVSTRCKWPDFLKMTNEAYGDKMFFFGRREQVYARHFFTRNGSVGEPIPNSVSPSDFYYAPDSTQDQKTLAPSVYFGTPSGSLVSSDGQLFNRPFWLQRAQGNNNGVCWHNELFVTVVDNTRNTNFTISQQTNTPNPDTYDSTNFKNYLRHVEQFELSLIAQLCKVPLDPGVLAHINTMNPTILENWNLGFVPPKEREDPYKGLIFWEVDLTERFSQDLDQFALGRKFLYQ
- conjugation efficiency: above 50%
